In article PMC9605866, “Structures of the TMC-1 complex illuminate mechanosensory transduction” (Nature, 2022):
These are yes or no findings as the source states them, for the method shown. In cells and extracts the contact can be indirect. A yes stands for co-enrichment or nearness to the bait. Other partners may have been found. Where a sequence is shown, tags or fusion partners need not be part of it.

Molecular target: T1, transmembrane channel-like protein 1 (TMC-1) with C-terminal mVenus and 3×Flag tag, from tmc-1::mVenus knock-in worms (C. elegans) (UniProt D3KZG3)
T1 sequence: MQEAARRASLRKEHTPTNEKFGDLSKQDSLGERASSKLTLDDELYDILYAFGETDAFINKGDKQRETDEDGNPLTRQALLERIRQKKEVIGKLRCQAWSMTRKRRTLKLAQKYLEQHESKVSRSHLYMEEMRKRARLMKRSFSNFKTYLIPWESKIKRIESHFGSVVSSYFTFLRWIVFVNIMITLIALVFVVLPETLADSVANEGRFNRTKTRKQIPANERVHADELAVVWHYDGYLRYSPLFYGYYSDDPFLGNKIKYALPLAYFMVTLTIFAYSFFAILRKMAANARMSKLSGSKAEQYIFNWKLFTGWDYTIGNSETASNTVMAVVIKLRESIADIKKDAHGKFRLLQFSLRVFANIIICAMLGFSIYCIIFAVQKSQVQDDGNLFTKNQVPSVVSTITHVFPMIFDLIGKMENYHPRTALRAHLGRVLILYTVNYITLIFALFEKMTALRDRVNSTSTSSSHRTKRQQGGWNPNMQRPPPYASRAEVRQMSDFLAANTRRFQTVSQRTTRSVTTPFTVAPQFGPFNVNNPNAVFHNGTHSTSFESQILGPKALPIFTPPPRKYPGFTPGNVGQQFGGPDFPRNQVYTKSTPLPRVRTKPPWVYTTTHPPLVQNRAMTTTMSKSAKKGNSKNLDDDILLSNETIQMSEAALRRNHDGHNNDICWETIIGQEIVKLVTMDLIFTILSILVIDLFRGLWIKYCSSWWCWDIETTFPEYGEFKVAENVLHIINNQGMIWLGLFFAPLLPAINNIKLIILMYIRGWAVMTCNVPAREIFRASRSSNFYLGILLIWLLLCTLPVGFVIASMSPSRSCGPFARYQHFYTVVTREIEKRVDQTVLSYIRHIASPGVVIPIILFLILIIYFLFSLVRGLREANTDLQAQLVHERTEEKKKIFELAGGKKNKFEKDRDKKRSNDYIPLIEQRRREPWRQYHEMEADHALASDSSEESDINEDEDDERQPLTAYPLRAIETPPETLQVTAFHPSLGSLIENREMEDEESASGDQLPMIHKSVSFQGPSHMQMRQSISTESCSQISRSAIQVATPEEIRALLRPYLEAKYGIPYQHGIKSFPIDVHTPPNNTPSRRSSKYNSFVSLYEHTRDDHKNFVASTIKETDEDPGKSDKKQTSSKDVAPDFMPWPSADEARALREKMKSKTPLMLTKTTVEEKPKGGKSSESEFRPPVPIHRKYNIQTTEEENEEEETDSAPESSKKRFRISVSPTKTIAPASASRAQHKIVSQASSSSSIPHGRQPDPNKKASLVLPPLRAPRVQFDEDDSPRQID
Assay: affinity purification with mass spectrometry; TMC-1-mVenus-3×Flag complex from GDN-solubilised tmc-1::mVenus worms bound to anti-Flag M2 resin, eluted with 3C protease, SEC peak pooled, digested and analysed by LC-MS/MS; control sample from wild-type N2 worms

## arrestin domain protein ARRD-6 (C. elegans (endogenous in worms))
  binding: binds
